# Assay results taken from PubChem BioAssay AID294 (DTP/NCI, 2004).
# The list is a part of this screen's results and no random one: it is rich in T/C values a quarter to a half above the control, in often repeated tests (any T/C) and in doses without a T/C. Further doses and runs are listed elsewhere. T/C gives the treated animals as a percentage of the vehicle group. Schedules are NCI's codes, read here as Q, the interval in days (D) or hours (H), X, the number of doses. Some T/C values are negative: the treated tumours shrank. Some T/C values are followed by the survivors on the day toxicity was checked, most often the fifth; without a count, all were alive then. Some doses have a count of surviving animals in place of a T/C: the source files T/C as zero there, which appears to mark a toxic dose or a test without result, not a measured value. Survivors were counted at the toxicity check, usually on the fifth day, unless a day is given; later deaths do not show. Some entries hold several experiments; the results are listed from low to high.
# System: MX-1 breast xenograft, nude mice, tumor weight change
# Assay: NCI In Vivo Anticancer Drug Screen. Data for tumor model Human Mammary Carcinoma MX-1 Xenograft (subcutaneous) in NU/NU Swiss (nude) mice
# Conditions: T/C endpoint: optimum tumor weight change, schedule: Q04DX003 (ip), higher T/C = larger tumour
# Method: The antitumor activity of compounds was measured in mice bearing transplantable tumors. Survival or tumor size were measured and the results are expressed as the measurement made in the treated group (T) divided by the measurement made in the vehicle treated control group (C). The tumor model used in this assay is Human Mammary Carcinoma MX-1 Xenograft (subcutaneous) in NU/NU Swiss (nude) mice
# [1] = dose: 100.0 mg/kg/injection, vehicle: Klucel (hydroxypropylcellulose) (HPC)
# [2] = dose: 800.0 mg/kg/injection, vehicle: Klucel (hydroxypropylcellulose) (HPC)
# [3] = dose: 200.0 mg/kg/injection, vehicle: saline with Tween-80
# [4] = dose: 400.0 mg/kg/injection, vehicle: saline with Tween-80
# [5] = dose: 100.0 mg/kg/injection, vehicle: saline
# [6] = dose: 800.0 mg/kg/injection, vehicle: saline
# [7] = dose: 200.0 mg/kg/injection, vehicle: Klucel (hydroxypropylcellulose) (HPC)
# [8] = dose: 400.0 mg/kg/injection, vehicle: Klucel (hydroxypropylcellulose) (HPC)
# [9] = dose: 800.0 mg/kg/injection, vehicle: suspension in saline
# [10] = dose: 50.0 mg/kg/injection, vehicle: saline
# [11] = dose: 200.0 mg/kg/injection, vehicle: saline
smiles,measurement,setting,value
CN(C)N=Nc1cn[nH]c1C(N)=O,survivor count,[1],3 of 5 on day 39
same,T/C,"dose: 200.0 mg/kg/injection, vehicle: Klucel (hydroxypropylcellulose) (HPC), evaluated on day 39",142 % of control [4 of 5 alive on day 39]
same,survivor count,[2],0 of 5 on day 39
OC(C1CO1)C(O)C1CO1 (configuration not stated),survivor count,"dose: 2.0 mg/kg/injection, vehicle: saline",2 of 5 on day 40
same,survivor count,"dose: 4.0 mg/kg/injection, vehicle: saline",0 of 5 on day 40
CCN(CC)CCCC(C)Nc1c2ccc(Cl)cc2nc2ccc(OC)cc12 (configuration not stated),survivor count,[3],0 of 5 on day 40
same,survivor count,[4],0 of 5 on day 40
O=CC(S)CO (configuration not stated),survivor count,[5],1 of 5 on day 39
same,survivor count,"dose: 400.0 mg/kg/injection, vehicle: saline",3 of 5 on day 39
same,survivor count,[6],3 of 5 on day 39
CS(=O)(=O)OCCN(CCOS(C)(=O)=O)c1ccc(C=Nc2ccc(-c3csc(COc4ccccc4)n3)cc2)cc1,survivor count,[7],0 of 5 on day 41
same,survivor count,[8],0 of 5 on day 41
same,survivor count,[2],0 of 5 on day 41
O=Cc1ccc(O)c(O)c1,T/C,"dose: 100.0 mg/kg/injection, vehicle: saline with Tween-80, evaluated on day 34",142 % of control
same,T/C,"dose: 200.0 mg/kg/injection, vehicle: saline with Tween-80, evaluated on day 34",144 % of control
CC(C)=CCNc1ncnc2c1ncn2C1OC(CO)C(O)C1O (configuration not stated),survivor count,[9],1 of 5 on day 34
COc1cccc2c1C(=O)c1c(O)c3c(c(O)c1C2=O)C[C@@](O)(/C(C)=N\O)C[C@@H]3OC1CC(N)C(O)C(C)O1 (some centres not stated),survivor count,[10],0 of 5 on day 36
same,survivor count,[5],0 of 5 on day 36
same,survivor count,[11],0 of 5 on day 36
Cc1c(N)nc([C@H](CC(N)=O)NC[C@H](N)C(N)=O)nc1C(=O)N[C@H](C(=O)N[C@H](C)[C@@H](O)CC(=O)N[C@H](C(=O)NC(O[C@@H]1O[C@@H](C)[C@@H](N)[C@@H](O)[C@H]1O)C(O)c1nc(-c2nc(C(=O)NCCCCN)cs2)cs1)[C@@H](C)O)[C@@H](O[C@@H]1O[C@@H](CO)[C@@H](O)[C@H](O)[C@@H]1O[C@H]1O[C@H](CO)[C@@H](O)[C@H](OC(N)=O)[C@@H]1O)c1c[nH]cn1 (some centres not stated),survivor count,"dose: 64.0 mg/kg/injection, vehicle: saline",0 of 5 on day 36
same,survivor count,"dose: 128.0 mg/kg/injection, vehicle: saline",0 of 5 on day 36
OCC1OC(n2cnc3c2NC=NC[C@H]3O)CC1O (some centres not stated),survivor count,"dose: 32.0 mg/kg/injection, vehicle: water",2 of 5 on day 36
CNC=O,survivor count,[6],3 of 5 on day 36
same,survivor count,"dose: 1600.0 mg/kg/injection, vehicle: saline",3 of 5 on day 36
CC(CN1CC(=O)NC(=O)C1)N1CC(=O)NC(=O)C1 (configuration not stated),survivor count,[9],0 of 5 on day 36
CCOC(=O)C1C2OC(=O)C(C(=O)C2CN(CCCl)CCCl)C1C1CC=C(CC2=CCC(C3C4C(=O)OC(C(CN(CCCl)CCCl)C4=O)C3C(=O)OCC)CC2)CC1 (configuration not stated),survivor count,[1],2 of 5 on day 40 and 3 of 5 on day 36
same,survivor count,[7],0 of 5 on day 36 and 0 of 5 on day 40
C[n+]1c(-c2cccc3ccccc23)c2cc(N)ccc2c2ccccc21,survivor count,"dose: 0.75 mg/kg/injection, vehicle: saline",3 of 5 on day 37
same,survivor count,"dose: 12.0 mg/kg/injection, vehicle: saline",3 of 5 on day 35
Cc1cc(N(CCOS(C)(=O)=O)CCOS(C)(=O)=O)ccc1C=Nc1ccc(-c2nc(Cc3ccccc3)sc2C)cc1,survivor count,[8],0 of 5 on day 42
Nc1nc(N)c2cc(CNc3ccc(C(=O)NC(CC(=O)O)CC(=O)O)cc3)ccc2n1,survivor count,[7],1 of 5 on day 40
same,survivor count,[8],1 of 5 on day 40
O=C1N(Cl)C(=O)C(c2ccc(Cl)cc2)(c2ccc(Cl)cc2)N1Cl,survivor count,[3],3 of 5 on day 35
same,survivor count,[4],1 of 5 on day 35
same,survivor count,"dose: 800.0 mg/kg/injection, vehicle: saline with Tween-80",0 of 5 on day 35
CN(C)N=Nc1cccc(C(N)=O)c1,T/C,"dose: 50.0 mg/kg/injection, vehicle: Klucel (hydroxypropylcellulose) (HPC), evaluated on day 39",140 % of control
same,survivor count,[1],2 of 5 on day 39
same,survivor count,[7],0 of 5 on day 39 and 1 of 5 on day 39
same,survivor count,[8],0 of 5 on day 39
CNC(=O)ON(C(C)=O)C(=O)NC,survivor count,"dose: 25.0 mg/kg/injection, vehicle: saline",3 of 5 on day 39
same,T/C,"dose: 50.0 mg/kg/injection, vehicle: saline, evaluated on day 33",23 % of control
same,T/C,"dose: 50.0 mg/kg/injection, vehicle: saline, evaluated on day 34",122 % of control
same,T/C,"dose: 50.0 mg/kg/injection, vehicle: saline, evaluated on day 39",107 % of control [4 of 5 alive on day 39]
same,survivor count,[10],1 of 5 on day 40
same,T/C,"dose: 100.0 mg/kg/injection, vehicle: saline, evaluated on day 34",-2 % of control
same,T/C,"dose: 100.0 mg/kg/injection, vehicle: saline, evaluated on day 40",53 % of control
same,survivor count,[5],0 of 5 on day 35 and 2 of 5 on day 39
same,survivor count,[11],"0 of 5 on day 35, 0 of 5 on day 39, 0 of 5 on day 40"
CC(C)CCCCCCCCCCCCC(=O)NCC(=O)NC1C(C)OC(Nc2ncnc3nc[nH]c23)C(O)C1O (configuration not stated),survivor count,"dose: 6.25 mg/kg/injection, vehicle: distilled water + Tween-80",0 of 5 on day 40
same,survivor count,"dose: 12.5 mg/kg/injection, vehicle: distilled water + Tween-80",2 of 5 on day 40
same,survivor count,"dose: 25.0 mg/kg/injection, vehicle: distilled water + Tween-80",0 of 5 on day 40
COC1C(C)OC(OC2CC(C)(O)Cc3cc4c(c(O)c32)C(=O)c2c(O)cc3c(c2C4=O)OC2OC3(C)C(O)C(N(C)C)C2O)C(OC)C1(C)OC (configuration not stated),survivor count,"dose: 2.5 mg/kg/injection, vehicle: Klucel (hydroxypropylcellulose) (HPC)",3 of 5 on day 36
O=[N+]([O-])/C=C\c1ccc2c(c1)OCO2,T/C,"dose: 100.0 mg/kg/injection, vehicle: Klucel (hydroxypropylcellulose) (HPC), evaluated on day 34",128 % of control
same,survivor count,[8],3 of 5 on day 36
CSc1cc(=O)n2c3ccccc3c3ccnc1c32,T/C,"dose: 80.0 mg/kg/injection, vehicle: saline with Tween-80, evaluated on day 40",128 % of control
same,survivor count,"dose: 80.0 mg/kg/injection, vehicle: saline with Tween-80",2 of 5 on day 36
same,T/C,"dose: 160.0 mg/kg/injection, vehicle: saline with Tween-80, evaluated on day 40",132 % of control
same,survivor count,"dose: 160.0 mg/kg/injection, vehicle: saline with Tween-80",3 of 5 on day 36
same,survivor count,"dose: 320.0 mg/kg/injection, vehicle: saline with Tween-80",1 of 5 on day 36
O=C[C@@H](CO)O[C@H](C=O)n1cnc2c(=O)[nH]cnc21,survivor count,[5],3 of 5 on day 41
same,survivor count,[11],3 of 5 on day 41
same,survivor count,[6],0 of 5 on day 41
